Measured values published in the supplement of paper PMC10849652.
The list shows a part of the results.

Amino acid sequences for entries named in this document (tags omitted). A change or cut given only in a name is not applied to a line headed by its entry.
UniProt Q5TDH0: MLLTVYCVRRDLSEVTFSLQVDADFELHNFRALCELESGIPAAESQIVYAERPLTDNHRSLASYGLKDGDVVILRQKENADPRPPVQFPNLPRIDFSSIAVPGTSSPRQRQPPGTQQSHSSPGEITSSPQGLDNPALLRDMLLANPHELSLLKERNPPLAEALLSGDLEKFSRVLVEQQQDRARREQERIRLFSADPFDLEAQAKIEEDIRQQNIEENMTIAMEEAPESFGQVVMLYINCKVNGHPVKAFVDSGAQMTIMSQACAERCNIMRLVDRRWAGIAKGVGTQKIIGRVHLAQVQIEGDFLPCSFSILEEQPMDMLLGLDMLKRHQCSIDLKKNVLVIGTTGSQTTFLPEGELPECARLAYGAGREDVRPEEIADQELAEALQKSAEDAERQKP
UniProt Q6P3S1: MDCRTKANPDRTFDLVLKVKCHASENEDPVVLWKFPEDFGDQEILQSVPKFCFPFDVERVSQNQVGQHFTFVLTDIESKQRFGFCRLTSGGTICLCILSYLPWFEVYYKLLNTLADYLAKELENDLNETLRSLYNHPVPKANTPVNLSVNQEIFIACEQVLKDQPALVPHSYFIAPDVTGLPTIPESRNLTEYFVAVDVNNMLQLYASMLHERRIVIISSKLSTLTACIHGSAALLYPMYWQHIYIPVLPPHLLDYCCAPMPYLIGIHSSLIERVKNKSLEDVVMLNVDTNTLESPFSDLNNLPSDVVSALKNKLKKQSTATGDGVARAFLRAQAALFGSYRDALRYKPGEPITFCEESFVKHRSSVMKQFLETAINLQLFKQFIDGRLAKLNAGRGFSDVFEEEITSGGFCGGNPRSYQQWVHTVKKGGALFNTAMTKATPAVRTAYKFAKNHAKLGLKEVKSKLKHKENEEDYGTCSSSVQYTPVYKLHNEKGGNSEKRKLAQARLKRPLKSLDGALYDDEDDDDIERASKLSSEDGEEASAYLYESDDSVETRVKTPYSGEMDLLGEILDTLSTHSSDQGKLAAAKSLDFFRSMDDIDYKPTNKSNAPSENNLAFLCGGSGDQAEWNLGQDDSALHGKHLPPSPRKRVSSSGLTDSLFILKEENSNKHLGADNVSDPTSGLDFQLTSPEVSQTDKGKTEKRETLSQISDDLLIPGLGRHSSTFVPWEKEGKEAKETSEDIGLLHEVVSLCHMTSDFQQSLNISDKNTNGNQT
UniProt Q9BUN8: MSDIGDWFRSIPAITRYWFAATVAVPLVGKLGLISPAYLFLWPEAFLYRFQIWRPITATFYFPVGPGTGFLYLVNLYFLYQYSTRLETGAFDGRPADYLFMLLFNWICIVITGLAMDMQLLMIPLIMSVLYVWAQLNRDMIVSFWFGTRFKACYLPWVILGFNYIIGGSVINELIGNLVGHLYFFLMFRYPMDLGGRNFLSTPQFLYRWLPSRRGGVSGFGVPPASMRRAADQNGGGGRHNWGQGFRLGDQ
UniProt Q9NR30: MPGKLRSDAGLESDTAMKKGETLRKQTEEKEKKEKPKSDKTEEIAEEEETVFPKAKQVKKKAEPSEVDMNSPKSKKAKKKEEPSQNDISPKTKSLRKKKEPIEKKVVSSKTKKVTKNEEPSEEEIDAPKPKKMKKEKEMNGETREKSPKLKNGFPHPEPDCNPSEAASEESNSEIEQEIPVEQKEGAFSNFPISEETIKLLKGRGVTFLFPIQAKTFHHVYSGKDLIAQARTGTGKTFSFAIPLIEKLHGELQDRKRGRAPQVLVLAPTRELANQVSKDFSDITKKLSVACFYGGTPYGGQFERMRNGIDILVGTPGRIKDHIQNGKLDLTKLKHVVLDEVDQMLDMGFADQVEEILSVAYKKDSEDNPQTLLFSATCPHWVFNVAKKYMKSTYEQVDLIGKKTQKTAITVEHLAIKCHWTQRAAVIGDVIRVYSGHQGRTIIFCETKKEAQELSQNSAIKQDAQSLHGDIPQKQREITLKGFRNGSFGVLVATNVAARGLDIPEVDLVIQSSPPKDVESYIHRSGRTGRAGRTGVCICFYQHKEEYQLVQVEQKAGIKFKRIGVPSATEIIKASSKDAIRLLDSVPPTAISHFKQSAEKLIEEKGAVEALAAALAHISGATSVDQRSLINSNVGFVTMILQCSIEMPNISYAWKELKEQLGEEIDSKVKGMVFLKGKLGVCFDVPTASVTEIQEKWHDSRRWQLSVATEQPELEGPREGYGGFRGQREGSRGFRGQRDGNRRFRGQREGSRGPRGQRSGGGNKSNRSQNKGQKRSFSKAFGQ
UniProt Q9BTE1, whole entry, looked up: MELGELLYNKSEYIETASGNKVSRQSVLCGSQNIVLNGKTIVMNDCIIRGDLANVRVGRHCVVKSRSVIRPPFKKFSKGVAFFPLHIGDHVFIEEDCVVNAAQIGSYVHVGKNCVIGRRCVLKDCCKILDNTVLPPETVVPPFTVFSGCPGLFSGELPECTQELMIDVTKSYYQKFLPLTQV
UniProt Q8N465: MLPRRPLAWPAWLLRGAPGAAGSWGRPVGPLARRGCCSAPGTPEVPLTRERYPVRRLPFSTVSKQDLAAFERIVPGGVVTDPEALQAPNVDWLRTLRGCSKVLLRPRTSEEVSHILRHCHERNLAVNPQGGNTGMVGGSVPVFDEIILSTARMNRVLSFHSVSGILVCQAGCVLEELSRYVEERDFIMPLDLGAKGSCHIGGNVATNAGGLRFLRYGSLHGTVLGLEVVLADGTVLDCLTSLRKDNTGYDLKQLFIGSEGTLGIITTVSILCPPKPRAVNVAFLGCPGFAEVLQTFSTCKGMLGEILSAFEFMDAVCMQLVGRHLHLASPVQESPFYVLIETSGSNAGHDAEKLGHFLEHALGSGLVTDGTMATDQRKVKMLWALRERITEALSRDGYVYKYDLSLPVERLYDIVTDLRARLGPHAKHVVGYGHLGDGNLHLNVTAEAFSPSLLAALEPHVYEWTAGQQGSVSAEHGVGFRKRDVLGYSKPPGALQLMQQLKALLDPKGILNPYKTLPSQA
UniProt O00273: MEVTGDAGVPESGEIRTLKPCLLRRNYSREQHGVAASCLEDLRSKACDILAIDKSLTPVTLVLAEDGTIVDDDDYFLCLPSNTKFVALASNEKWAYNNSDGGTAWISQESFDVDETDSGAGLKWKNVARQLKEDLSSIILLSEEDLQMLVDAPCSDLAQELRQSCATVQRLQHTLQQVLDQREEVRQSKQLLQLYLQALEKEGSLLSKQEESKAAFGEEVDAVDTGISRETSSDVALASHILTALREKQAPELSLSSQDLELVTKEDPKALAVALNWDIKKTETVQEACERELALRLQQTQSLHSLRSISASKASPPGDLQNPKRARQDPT
UniProt P61803: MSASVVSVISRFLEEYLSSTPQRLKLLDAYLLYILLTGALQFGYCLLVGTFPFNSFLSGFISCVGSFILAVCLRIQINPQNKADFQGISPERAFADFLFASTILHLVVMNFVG
UniProt O00148, whole entry, looked up: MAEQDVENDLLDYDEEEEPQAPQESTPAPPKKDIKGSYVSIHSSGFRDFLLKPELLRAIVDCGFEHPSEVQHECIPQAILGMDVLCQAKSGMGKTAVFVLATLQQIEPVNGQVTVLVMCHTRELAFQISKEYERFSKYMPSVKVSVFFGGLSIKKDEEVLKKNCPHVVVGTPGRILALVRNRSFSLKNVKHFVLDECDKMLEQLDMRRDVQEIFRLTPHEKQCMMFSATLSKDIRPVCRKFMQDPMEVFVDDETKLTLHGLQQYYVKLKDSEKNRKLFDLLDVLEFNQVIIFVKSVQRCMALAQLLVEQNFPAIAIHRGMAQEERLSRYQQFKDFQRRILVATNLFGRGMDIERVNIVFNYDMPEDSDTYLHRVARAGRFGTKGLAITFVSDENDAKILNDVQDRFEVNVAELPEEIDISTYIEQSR
UniProt Q14203, whole entry, looked up: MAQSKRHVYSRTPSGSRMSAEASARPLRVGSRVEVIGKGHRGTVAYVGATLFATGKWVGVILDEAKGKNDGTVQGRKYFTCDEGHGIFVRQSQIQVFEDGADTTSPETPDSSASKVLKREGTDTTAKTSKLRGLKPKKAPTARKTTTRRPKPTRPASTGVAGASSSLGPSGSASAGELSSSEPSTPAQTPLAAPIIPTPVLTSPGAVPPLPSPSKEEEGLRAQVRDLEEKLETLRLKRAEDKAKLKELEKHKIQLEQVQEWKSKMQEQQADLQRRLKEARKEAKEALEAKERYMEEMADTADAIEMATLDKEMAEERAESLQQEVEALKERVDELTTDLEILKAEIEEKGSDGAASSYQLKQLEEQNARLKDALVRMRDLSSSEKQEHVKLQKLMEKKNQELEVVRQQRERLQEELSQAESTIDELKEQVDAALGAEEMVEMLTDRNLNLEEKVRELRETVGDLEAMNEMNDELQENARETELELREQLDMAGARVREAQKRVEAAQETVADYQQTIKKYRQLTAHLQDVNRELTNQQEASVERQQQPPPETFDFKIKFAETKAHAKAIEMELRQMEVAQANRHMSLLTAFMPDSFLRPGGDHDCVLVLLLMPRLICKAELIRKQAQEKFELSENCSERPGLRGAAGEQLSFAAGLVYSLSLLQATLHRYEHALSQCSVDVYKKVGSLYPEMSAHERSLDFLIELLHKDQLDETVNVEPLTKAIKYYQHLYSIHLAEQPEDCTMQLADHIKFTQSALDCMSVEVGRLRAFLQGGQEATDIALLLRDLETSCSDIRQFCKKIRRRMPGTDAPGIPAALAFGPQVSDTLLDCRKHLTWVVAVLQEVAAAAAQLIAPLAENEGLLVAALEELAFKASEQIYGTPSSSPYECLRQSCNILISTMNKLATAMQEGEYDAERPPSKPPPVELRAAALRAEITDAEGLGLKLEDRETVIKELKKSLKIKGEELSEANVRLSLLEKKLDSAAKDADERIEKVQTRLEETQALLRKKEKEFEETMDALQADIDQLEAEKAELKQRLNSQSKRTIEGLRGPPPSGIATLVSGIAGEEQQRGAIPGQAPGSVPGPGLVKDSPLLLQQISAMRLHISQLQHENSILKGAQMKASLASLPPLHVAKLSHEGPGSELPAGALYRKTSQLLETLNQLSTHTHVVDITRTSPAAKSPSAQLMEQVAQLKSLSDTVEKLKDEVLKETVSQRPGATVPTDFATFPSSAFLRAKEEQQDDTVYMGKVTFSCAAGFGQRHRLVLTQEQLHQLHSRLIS
UniProt P27707: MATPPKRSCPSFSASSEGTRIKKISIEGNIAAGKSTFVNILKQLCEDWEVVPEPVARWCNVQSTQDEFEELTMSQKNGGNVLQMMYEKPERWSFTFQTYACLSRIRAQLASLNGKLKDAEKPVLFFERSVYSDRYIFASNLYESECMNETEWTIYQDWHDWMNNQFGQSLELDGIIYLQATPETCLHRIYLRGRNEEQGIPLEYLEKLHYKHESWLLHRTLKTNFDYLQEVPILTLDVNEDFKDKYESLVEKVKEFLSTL
UniProt Q6PI48: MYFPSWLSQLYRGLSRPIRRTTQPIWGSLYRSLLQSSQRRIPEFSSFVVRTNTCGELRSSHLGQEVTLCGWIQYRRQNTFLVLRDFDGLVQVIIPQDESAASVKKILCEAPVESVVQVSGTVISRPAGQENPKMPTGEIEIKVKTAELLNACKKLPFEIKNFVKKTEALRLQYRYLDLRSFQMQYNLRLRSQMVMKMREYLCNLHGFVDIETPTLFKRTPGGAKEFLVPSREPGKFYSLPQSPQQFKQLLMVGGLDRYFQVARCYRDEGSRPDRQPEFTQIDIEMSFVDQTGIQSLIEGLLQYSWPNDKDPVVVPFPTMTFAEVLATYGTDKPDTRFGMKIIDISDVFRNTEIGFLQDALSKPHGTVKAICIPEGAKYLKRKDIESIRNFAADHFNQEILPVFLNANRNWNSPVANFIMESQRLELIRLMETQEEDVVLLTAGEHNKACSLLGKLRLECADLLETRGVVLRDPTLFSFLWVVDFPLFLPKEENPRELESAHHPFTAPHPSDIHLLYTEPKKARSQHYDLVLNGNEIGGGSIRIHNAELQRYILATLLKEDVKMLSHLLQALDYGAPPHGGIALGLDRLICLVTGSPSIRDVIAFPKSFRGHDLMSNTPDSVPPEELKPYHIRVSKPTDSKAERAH
UniProt Q9NPI6: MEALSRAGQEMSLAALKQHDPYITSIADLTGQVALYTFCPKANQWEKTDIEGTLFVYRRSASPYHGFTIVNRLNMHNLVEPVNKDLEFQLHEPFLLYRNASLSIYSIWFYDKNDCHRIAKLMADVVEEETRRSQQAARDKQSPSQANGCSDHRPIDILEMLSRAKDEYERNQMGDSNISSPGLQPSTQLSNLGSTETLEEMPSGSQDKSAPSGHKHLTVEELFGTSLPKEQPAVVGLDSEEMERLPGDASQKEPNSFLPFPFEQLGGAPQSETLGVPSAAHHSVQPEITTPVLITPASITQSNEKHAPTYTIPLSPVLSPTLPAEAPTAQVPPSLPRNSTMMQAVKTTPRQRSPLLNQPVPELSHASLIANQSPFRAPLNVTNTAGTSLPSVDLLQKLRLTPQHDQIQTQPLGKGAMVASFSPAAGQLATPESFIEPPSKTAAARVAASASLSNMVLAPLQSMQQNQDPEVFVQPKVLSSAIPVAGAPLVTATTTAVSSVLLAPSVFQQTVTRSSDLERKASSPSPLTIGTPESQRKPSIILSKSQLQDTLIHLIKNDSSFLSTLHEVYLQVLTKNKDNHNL

What follows are targets tested with Cn1cncc1[C@@](N)(c1ccc(Cl)cc1)c1ccc2c(c1)c(-c1cccc(Cl)c1)cc(=O)n2C [tipifarnib] (assay: log2 fold change, soluble protein after heating vs DMSO (PISA); higher = thermal stabilisation; K562 lysate, 10 uM; active = over 0.2 and 3.5 SD of the protein, either way, in both replicates (recomputed)).
Procedure, shortened: (§1)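 K562 pellets were dounce-homogenised in PBS pH 7.4 containing 1 mM MgCl2, and the crude extract, at 1 mg/mL protein, was exposed to 10 μM compound for 30 min. Aliquots were heated for 3 min across 48°C-58°C, pooled, brought to 0.5% NP-40 at 4°C and spun at 21,000xg for 90 min, with the supernatant taken as soluble protein. TMTpro 16plex LC-MS/MS with equalised channel sums quantified that protein. Values are log-two fold changes in thermal stability relative to solvent controls, taken from duplicates.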

Target | log2 fold change
DCAF8 (UniProt Q5TAQ9) | inactive: 0.113
DDI2 isoform 3 (UniProt Q5TDH0) | inactive: -0.033
DENND1B (UniProt Q6P3S1) | inactive: 0.017
DDX1 (UniProt Q92499) | inactive: 0.004
DAPK1 isoform 3 (UniProt P53355) | inactive: 0.056
DERL1 (UniProt Q9BUN8) | inactive: -0.101
DDX6 (UniProt P26196) | inactive: 0.018
DENR (UniProt O43583) | inactive: -0.015

Each target was assayed with NC(=O)Nc1cc(-c2cccc(F)c2)sc1C(=O)N[C@H]1CCCNC1 in the same assay as above.
Procedure, shortened: as §1

Target | log2 fold change
DENND4C (UniProt Q5VZ89) | inactive: 0.013
DEK (UniProt P35659) | inactive: -0.025
DBN1 (UniProt Q16643) | inactive: -0.021
DDX21 (UniProt Q9NR30) | inactive: 0.024
DCTN5 (UniProt Q9BTE1) | inactive: 0.035
D2HGDH (UniProt Q8N465) | inactive: 0.022
DDX39B isoform 2 (UniProt Q13838) | inactive: 0.004
DFFA isoform 2 (UniProt O00273) | inactive: 0.065
DDB2 (UniProt Q92466) | inactive: 0.021
DDX59 (UniProt Q5T1V6) | inactive: -0.009
CYP51A1 (UniProt Q16850) | inactive: -0.016
DEF6 (UniProt Q9H4E7) | inactive: 0.067
DAD1 (UniProt P61803) | inactive: 0.042
DERPC (UniProt P0CG12) | inactive: -0.054
DDX39A (UniProt O00148) | inactive: 0.075
DCTN1 (UniProt Q14203) | inactive: 0.011

Target | log2 fold change
DDA1 (UniProt Q9BW61) | inactive: -0.023
DCK (UniProt P27707) | inactive: -0.024
DDT (UniProt P30046) | inactive: -0.018
DERL2 (UniProt Q9GZP9) | inactive: 0
DBR1 (UniProt Q9UK59) | inactive: 0.011
DAGLB (UniProt Q8NCG7) | inactive: 0.059
DARS2 (UniProt Q6PI48) | inactive: 0.055
DCP1A (UniProt Q9NPI6) | inactive: 0.008
DCAF8 (UniProt Q5TAQ9) | inactive: -0.029
DDI2 isoform 3 (UniProt Q5TDH0) | inactive: -0.005
DENND1B (UniProt Q6P3S1) | inactive: 0.211
DDX1 (UniProt Q92499) | inactive: -0.023
DAPK1 isoform 3 (UniProt P53355) | active: 0.812
DERL1 (UniProt Q9BUN8) | inactive: -0.035
DDX6 (UniProt P26196) | inactive: 0.02
DENR (UniProt O43583) | inactive: 0.023
